Test results reported in the supplement of paper PMC9015667.
Structures can show the parent of a compound that is named as a salt. The list shows a part of the results. Single values are uncertain, as repeats are few or missing.

Experiments:
Assay in all cases: reduction in cell viability relative to untreated/vehicle; higher = more growth inhibition
Settings in all cases: 200 nM; 72 h
M229P = test system: M229P (parental melanoma line)
M229R = test system: M229R (matched melanoma line resistant to BRAF inhibitors)
M238P = test system: M238P (parental melanoma line)
M238R = test system: M238R (matched melanoma line resistant to BRAF inhibitors)
M249P = test system: M249P (parental melanoma line)
M249R = test system: M249R (matched melanoma line resistant to BRAF inhibitors)
UACC62P = test system: UACC62P (parental melanoma line)
UACC62R = test system: UACC62R (matched melanoma line resistant to BRAF inhibitors)

For `CN(C)[C@@H](CCOc1cccc2ccccc12)c1ccccc1` [Dapoxetine hydrochloride], the “reduction in cell viability” value (M229P) was < 0%, the “reduction in cell viability” value (M229R) was < 0% and the “reduction in cell viability” value (M238P) was < 0%. For the same compound, the “reduction in cell viability” value (M238R) was < 0%, the “reduction in cell viability” value (M249P) was < 0% and the “reduction in cell viability” value (M249R) was < 0%. The “reduction in cell viability” value (UACC62P) was 1.36% and the “reduction in cell viability” value (UACC62R) was < 0%.
With `O=C1Nc2ccc(I)cc2/C1=C/c1cc(Br)c(O)c(Br)c1` the “reduction in cell viability” value (M229P) was < 0%, the “reduction in cell viability” value (M229R) was < 0% and the “reduction in cell viability” value (M238P) was < 0%. For the same compound, the “reduction in cell viability” value (M238R) was < 0%, the “reduction in cell viability” value (M249P) was < 0% and the “reduction in cell viability” value (M249R) was < 0%. For the same compound, the “reduction in cell viability” value (UACC62P) was < 0% and the “reduction in cell viability” value (UACC62R) was < 0%.
With `COc1ccc(Cn2ccc3ccc(C(=O)NO)cc32)cc1` the “reduction in cell viability” value (M229P) was < 0%, the “reduction in cell viability” value (M229R) was < 0% and the “reduction in cell viability” value (M238P) was < 0%. For the same compound, the “reduction in cell viability” value (M238R) was < 0%, the “reduction in cell viability” value (M249P) was < 0% and the “reduction in cell viability” value (M249R) was < 0%. The “reduction in cell viability” value (UACC62P) was < 0% and the “reduction in cell viability” value (UACC62R) was < 0%.
In the case of `O=C(O)c1ccccc1C(=O)Nc1ccc(-c2ccccc2)cc1` [Kartogenin], the “reduction in cell viability” value (M229P) is reported as < 0%, the “reduction in cell viability” value (M229R) is reported as < 0% and the “reduction in cell viability” value (M238P) is reported as < 0%. The “reduction in cell viability” value (M238R) was < 0%, the “reduction in cell viability” value (M249P) was < 0% and the “reduction in cell viability” value (M249R) was < 0%. For the same compound, the “reduction in cell viability” value (UACC62P) was < 0% and the “reduction in cell viability” value (UACC62R) was < 0%.
In the case of `O=C(NCCO[N+](=O)[O-])c1cccnc1` [Nicorandil], the “reduction in cell viability” value (M229P) is reported as < 0%, the “reduction in cell viability” value (M229R) is reported as < 0% and the “reduction in cell viability” value (M238P) is reported as < 0%. The “reduction in cell viability” value (M238R) was < 0%, the “reduction in cell viability” value (M249P) was < 0% and the “reduction in cell viability” value (M249R) was < 0%. The “reduction in cell viability” value (UACC62P) was < 0% and the “reduction in cell viability” value (UACC62R) was < 0%.
With `CCC(=O)OCC(=O)[C@@]1(OC(=O)CC)[C@@H](C)C[C@H]2[C@@H]3CCC4=CC(=O)C=C[C@]4(C)[C@@]3(F)[C@@H](O)C[C@@]21C` [Betamethasone dipropionate] the “reduction in cell viability” value (M229P) was < 0%, the “reduction in cell viability” value (M229R) was < 0% and the “reduction in cell viability” value (M238P) was < 0%. For the same compound, the “reduction in cell viability” value (M238R) was < 0%, the “reduction in cell viability” value (M249P) was < 0% and the “reduction in cell viability” value (M249R) was < 0%. The “reduction in cell viability” value (UACC62P) was 2.77% and the “reduction in cell viability” value (UACC62R) was < 0%.
For `CN(C)S(=O)(=O)c1ccc2c(c1)/C(=C/c1cc3c([nH]1)CCCC3)C(=O)N2`, the “reduction in cell viability” value (M229P) was < 0%, the “reduction in cell viability” value (M229R) was < 0% and the “reduction in cell viability” value (M238P) was < 0%. For the same compound, the “reduction in cell viability” value (M238R) was < 0%, the “reduction in cell viability” value (M249P) was < 0% and the “reduction in cell viability” value (M249R) was < 0%. The “reduction in cell viability” value (UACC62P) was < 0% and the “reduction in cell viability” value (UACC62R) was < 0%.
In the case of `CO[C@H]1/C=C\C=C(/C)C(=O)NC2=CC(=O)C(NCCN(C)C)=C(C[C@@H](C)C[C@H](OC)[C@H](O)[C@@H](C)/C=C(\C)[C@@H]1OC(N)=O)C2=O` [Alvespimycin hydrochloride], the “reduction in cell viability” value (M229P) is reported as 54.5%, the “reduction in cell viability” value (M229R) is reported as 72.4% and the “reduction in cell viability” value (M238P) is reported as 66.6%. The “reduction in cell viability” value (M238R) was 65.4%, the “reduction in cell viability” value (M249P) was 29.4% and the “reduction in cell viability” value (M249R) was 41%. The “reduction in cell viability” value (UACC62P) was 67.4% and the “reduction in cell viability” value (UACC62R) was 68.6%.
With `N#Cc1ccc(COC[C@H]2O[C@@H](n3c(NCc4ccc(Cl)c(Cl)c4)nc4c(N)ncnc43)[C@H](O)[C@@H]2O)cc1` the “reduction in cell viability” value (M229P) was < 0%, the “reduction in cell viability” value (M229R) was < 0% and the “reduction in cell viability” value (M238P) was < 0%. For the same compound, the “reduction in cell viability” value (M238R) was < 0%, the “reduction in cell viability” value (M249P) was < 0% and the “reduction in cell viability” value (M249R) was < 0%. For the same compound, the “reduction in cell viability” value (UACC62P) was < 0% and the “reduction in cell viability” value (UACC62R) was < 0%.
For `NC[C@H](O)c1ccc(O)c(O)c1` [Noradrenaline bitartrate monohydrate], the “reduction in cell viability” value (M229P) was < 0%, the “reduction in cell viability” value (M229R) was < 0% and the “reduction in cell viability” value (M238P) was < 0%. The “reduction in cell viability” value (M238R) was < 0%, the “reduction in cell viability” value (M249P) was < 0% and the “reduction in cell viability” value (M249R) was 3.21%. The “reduction in cell viability” value (UACC62P) was < 0% and the “reduction in cell viability” value (UACC62R) was < 0%.
For `O=C(Nc1c(Cl)cncc1Cl)c1ccc(OC(F)F)c(OCC2CC2)c1` [Roflumilast], the “reduction in cell viability” value (M229P) was < 0%, the “reduction in cell viability” value (M229R) was < 0% and the “reduction in cell viability” value (M238P) was < 0%. The “reduction in cell viability” value (M238R) was < 0%, the “reduction in cell viability” value (M249P) was < 0% and the “reduction in cell viability” value (M249R) was < 0%. The “reduction in cell viability” value (UACC62P) was < 0% and the “reduction in cell viability” value (UACC62R) was < 0%.
In the case of `Nc1cccc(-c2cc3c(Oc4cccc(O)c4)ncnc3[nH]2)c1`, the “reduction in cell viability” value (M229P) is reported as < 0%, the “reduction in cell viability” value (M229R) is reported as < 0% and the “reduction in cell viability” value (M238P) is reported as < 0%. For the same compound, the “reduction in cell viability” value (M238R) was < 0%, the “reduction in cell viability” value (M249P) was < 0% and the “reduction in cell viability” value (M249R) was < 0%. For the same compound, the “reduction in cell viability” value (UACC62P) was < 0% and the “reduction in cell viability” value (UACC62R) was < 0%.
`Cn1cc(-c2ccc3nnc(C(F)(F)c4ccc5ncccc5c4)n3n2)cn1` was tested, and the “reduction in cell viability” value (M229P) was < 0%, the “reduction in cell viability” value (M229R) was < 0% and the “reduction in cell viability” value (M238P) was < 0%. The “reduction in cell viability” value (M238R) was < 0%, the “reduction in cell viability” value (M249P) was < 0% and the “reduction in cell viability” value (M249R) was < 0%. For the same compound, the “reduction in cell viability” value (UACC62P) was < 0% and the “reduction in cell viability” value (UACC62R) was < 0%.
With `CCNC(=O)[C@H]1O[C@@H](n2cnc3c(N)nc(NCCc4ccc(CCC(=O)O)cc4)nc32)[C@H](O)[C@@H]1O` the “reduction in cell viability” value (M229P) was < 0%, the “reduction in cell viability” value (M229R) was < 0% and the “reduction in cell viability” value (M238P) was < 0%. The “reduction in cell viability” value (M238R) was < 0%, the “reduction in cell viability” value (M249P) was < 0% and the “reduction in cell viability” value (M249R) was < 0%. The “reduction in cell viability” value (UACC62P) was < 0% and the “reduction in cell viability” value (UACC62R) was < 0%.
`COc1ccc2c(OCc3nnc4ccc(-c5ccccc5)nn34)ccnc2c1` was tested, and the “reduction in cell viability” value (M229P) was < 0%, the “reduction in cell viability” value (M229R) was < 0% and the “reduction in cell viability” value (M238P) was < 0%. The “reduction in cell viability” value (M238R) was < 0%, the “reduction in cell viability” value (M249P) was < 0% and the “reduction in cell viability” value (M249R) was < 0%. The “reduction in cell viability” value (UACC62P) was < 0% and the “reduction in cell viability” value (UACC62R) was 6.35%.
For `C=CC(=O)Nc1cccc(Oc2nc(Nc3ccc(N4CCN(C)CC4)cc3OC)ncc2Cl)c1`, the “reduction in cell viability” value (M229P) was < 0%, the “reduction in cell viability” value (M229R) was < 0% and the “reduction in cell viability” value (M238P) was < 0%. For the same compound, the “reduction in cell viability” value (M238R) was < 0%, the “reduction in cell viability” value (M249P) was < 0% and the “reduction in cell viability” value (M249R) was < 0%. For the same compound, the “reduction in cell viability” value (UACC62P) was < 0% and the “reduction in cell viability” value (UACC62R) was < 0%.
`C=C(C)[C@@H]1CC[C@]2(C(=O)O)CC[C@]3(C)[C@H](CC[C@@H]4[C@@]5(C)CC[C@H](O)C(C)(C)[C@@H]5CC[C@]43C)[C@@H]12` [Betulinic acid] was tested, and the “reduction in cell viability” value (M229P) was < 0%, the “reduction in cell viability” value (M229R) was < 0% and the “reduction in cell viability” value (M238P) was < 0%. For the same compound, the “reduction in cell viability” value (M238R) was < 0%, the “reduction in cell viability” value (M249P) was < 0% and the “reduction in cell viability” value (M249R) was < 0%. For the same compound, the “reduction in cell viability” value (UACC62P) was < 0% and the “reduction in cell viability” value (UACC62R) was < 0%.
For `COc1cc(OC)c(NC(=O)Nc2cc(C)on2)cc1Cl`, the “reduction in cell viability” value (M229P) was < 0%, the “reduction in cell viability” value (M229R) was < 0% and the “reduction in cell viability” value (M238P) was < 0%. For the same compound, the “reduction in cell viability” value (M238R) was < 0%, the “reduction in cell viability” value (M249P) was < 0% and the “reduction in cell viability” value (M249R) was < 0%. For the same compound, the “reduction in cell viability” value (UACC62P) was < 0% and the “reduction in cell viability” value (UACC62R) was < 0%.
For `CCCCCCOC(=O)NC(=N)c1ccc(NCc2nc3cc(C(=O)N(CCC(=O)OCC)c4ccccn4)ccc3n2C)cc1`, the “reduction in cell viability” value (M229P) was < 0%, the “reduction in cell viability” value (M229R) was < 0% and the “reduction in cell viability” value (M238P) was < 0%. The “reduction in cell viability” value (M238R) was < 0%, the “reduction in cell viability” value (M249P) was < 0% and the “reduction in cell viability” value (M249R) was < 0%. For the same compound, the “reduction in cell viability” value (UACC62P) was < 0% and the “reduction in cell viability” value (UACC62R) was < 0%.
With `C[C@H]1O[C@H](O[C@H]2[C@H](O)[C@@H](O)[C@@H](O[C@H]3[C@H](O)[C@@H](O)C(O)O[C@@H]3CO)O[C@@H]2CO)[C@H](O)[C@@H](O)[C@@H]1N[C@H]1C=C(CO)[C@@H](O)[C@H](O)[C@H]1O` (stereo not given in full) [Acarbose] the “reduction in cell viability” value (M229P) was < 0%, the “reduction in cell viability” value (M229R) was 1.04% and the “reduction in cell viability” value (M238P) was < 0%. The “reduction in cell viability” value (M238R) was < 0%, the “reduction in cell viability” value (M249P) was < 0% and the “reduction in cell viability” value (M249R) was 1.22%. The “reduction in cell viability” value (UACC62P) was < 0% and the “reduction in cell viability” value (UACC62R) was < 0%.
